This note sets out measurements from PubChem BioAssay AID1665 (Sanford-Burnham Center for Chemical Genomics, 2009).

The list shows a part of the results. Some of these compounds have results that are not shown, active ones among them.

This experiment in a line: beta-catenin nuclear localization change in HeLa – imaging, HeLa cells, immunofluorescence, high-content, primary screen (AID 1665). Conditions: HeLa beta-catenin nuclear translocation, measured here: cell count, cytotoxicity flag, at 5 µM. Summed up: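 Test system: human HeLa cells, endogenous beta-catenin. Times: 24 h compound exposure, 37°C. Measured by: beta-catenin immunofluorescence imaging with DAPI.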
Consider `COc1cccc(C(=O)NCC2(N3CCCCC3)CCCCC2)c1`, for which the cell count came out at 1060 cells.
With `COc1ccc(Br)c(C(=O)NCC2(N3CCCCC3)CCCCC2)c1`, the cell count is 1220 cells.
Consider `CN(C)c1cccc(C(=O)NCC2(N(C)C)CCCCC2)c1`, for which the cell count came to 1120 cells.
In the case of `O=C(NCC1(N2CCCCC2)CCCCC1)c1cc([N+](=O)[O-])ccc1Cl`, the cell count was 1040 cells.
As to `CCN(CC)CC(C)C(C)OC(=O)C(O)(c1ccccc1)c1ccccc1` (stereo not given), the cell count came out at 1320 cells.
Take `CC(C)N1C(=O)CC2(CCN(CCOC(=O)C(O)(c3ccccc3)c3ccccc3)CC2)C1=O`: the cell count turned out to be 1290 cells.
Turning to `Cc1ccccc1C(=O)NCC1(N2CCCCC2)CCCCC1`, the cell count is 1140 cells.
Consider `CN(C)C1CCCC1OC(=O)C(O)(c1ccccc1)c1ccccc1` (stereo not given), for which the cell count worked out at 1060 cells.
`C=CCN1CCN(CCOC(=O)C(O)(c2ccccc2)c2ccccc2)CC1`: the cell count came to 996 cells.
As to `CCN1CCCC(OC(=O)C2(O)c3ccccc3C=Cc3ccccc32)C1` (stereo not given), the cell count was determined as 619 cells.
